The other results are listed elsewhere or left out.
Columns and labels:
Assay in all cases: log2 fold change, soluble protein after heating vs DMSO (PISA); higher = thermal stabilisation; K562 lysate, 10 uM; active = over 0.2 and 3.5 SD of the protein, either way, in both replicates (recomputed)
erlotinib = compound: C#Cc1cccc(Nc2ncnc3cc(OCCOC)c(OCCOC)cc23)c1 [erlotinib]
Summary of the method: (§1)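 K562 pellets were dounce-homogenised in PBS pH 7.4 with 1 mM MgCl2, and the crude extract at 1 mg/mL protein was treated with 10 μM compound for 30 min. Aliquots were heated for 3 min across 48°C-58°C, pooled, and brought to 0.5% NP-40 at 4°C; soluble protein was the supernatant after 21,000xg for 90 min. Soluble protein was quantified by TMTpro 16plex LC-MS/MS with channel sums equalised, and reported as log2 fold change in thermal stability against DMSO controls, with values from duplicates.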

The chains behind the UniProt entries cited, without tags or fusion partners. Where a name states a change or a piece, a line headed by the entry shows the natural chain unless it says otherwise.
UniProt Q9NX02: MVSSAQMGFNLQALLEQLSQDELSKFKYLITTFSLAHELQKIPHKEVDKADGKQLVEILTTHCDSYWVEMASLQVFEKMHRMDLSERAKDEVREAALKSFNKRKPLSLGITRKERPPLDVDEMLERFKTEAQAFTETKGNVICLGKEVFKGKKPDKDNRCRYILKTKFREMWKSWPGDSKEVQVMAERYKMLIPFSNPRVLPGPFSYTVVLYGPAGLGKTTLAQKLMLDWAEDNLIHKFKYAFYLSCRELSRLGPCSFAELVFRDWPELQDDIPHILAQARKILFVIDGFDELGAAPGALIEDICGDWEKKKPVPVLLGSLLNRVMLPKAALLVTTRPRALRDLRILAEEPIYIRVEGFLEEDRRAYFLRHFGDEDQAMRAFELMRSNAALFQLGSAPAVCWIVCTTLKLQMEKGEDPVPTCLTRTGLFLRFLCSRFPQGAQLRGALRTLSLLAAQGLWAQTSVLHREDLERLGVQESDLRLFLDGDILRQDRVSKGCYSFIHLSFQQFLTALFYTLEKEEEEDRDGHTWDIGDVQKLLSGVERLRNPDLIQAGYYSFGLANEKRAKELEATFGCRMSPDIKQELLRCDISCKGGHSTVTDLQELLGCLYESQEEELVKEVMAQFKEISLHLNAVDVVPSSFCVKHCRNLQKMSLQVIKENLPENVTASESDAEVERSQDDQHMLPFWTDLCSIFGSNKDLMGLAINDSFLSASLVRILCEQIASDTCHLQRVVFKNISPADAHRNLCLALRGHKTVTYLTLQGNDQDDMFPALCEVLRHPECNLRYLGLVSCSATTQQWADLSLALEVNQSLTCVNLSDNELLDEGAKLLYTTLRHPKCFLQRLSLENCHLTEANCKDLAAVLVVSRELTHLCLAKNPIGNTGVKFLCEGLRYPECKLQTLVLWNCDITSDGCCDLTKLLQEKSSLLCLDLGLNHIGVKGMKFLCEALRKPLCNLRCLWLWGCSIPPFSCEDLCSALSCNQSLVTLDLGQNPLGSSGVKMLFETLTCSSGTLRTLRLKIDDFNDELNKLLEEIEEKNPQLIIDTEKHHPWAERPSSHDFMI
UniProt O95169, whole entry, looked up: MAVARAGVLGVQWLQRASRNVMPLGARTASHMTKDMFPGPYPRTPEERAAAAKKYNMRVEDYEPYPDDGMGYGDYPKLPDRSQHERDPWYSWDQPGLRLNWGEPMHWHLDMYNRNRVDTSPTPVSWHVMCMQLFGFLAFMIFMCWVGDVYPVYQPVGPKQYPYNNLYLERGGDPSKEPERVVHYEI
UniProt P28331, whole entry, looked up: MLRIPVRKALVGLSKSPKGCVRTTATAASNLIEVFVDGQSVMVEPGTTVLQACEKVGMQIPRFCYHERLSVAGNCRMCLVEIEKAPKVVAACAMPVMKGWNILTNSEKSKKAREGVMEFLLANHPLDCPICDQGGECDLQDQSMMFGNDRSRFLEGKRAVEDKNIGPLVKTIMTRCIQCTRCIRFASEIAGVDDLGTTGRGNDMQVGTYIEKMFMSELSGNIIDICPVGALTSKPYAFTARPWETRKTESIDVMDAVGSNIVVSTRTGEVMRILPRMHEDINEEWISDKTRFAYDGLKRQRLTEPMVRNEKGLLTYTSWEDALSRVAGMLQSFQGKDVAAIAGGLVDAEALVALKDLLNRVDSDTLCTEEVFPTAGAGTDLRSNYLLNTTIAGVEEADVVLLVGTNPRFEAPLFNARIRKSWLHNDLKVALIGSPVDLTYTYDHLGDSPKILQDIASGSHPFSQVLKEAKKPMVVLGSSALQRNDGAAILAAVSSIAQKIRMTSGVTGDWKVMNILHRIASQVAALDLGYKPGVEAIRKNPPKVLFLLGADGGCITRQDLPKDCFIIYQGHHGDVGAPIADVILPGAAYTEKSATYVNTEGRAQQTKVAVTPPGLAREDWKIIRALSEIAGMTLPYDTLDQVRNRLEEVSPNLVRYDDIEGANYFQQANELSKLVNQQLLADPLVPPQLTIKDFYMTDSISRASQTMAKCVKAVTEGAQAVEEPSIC
UniProt O14777: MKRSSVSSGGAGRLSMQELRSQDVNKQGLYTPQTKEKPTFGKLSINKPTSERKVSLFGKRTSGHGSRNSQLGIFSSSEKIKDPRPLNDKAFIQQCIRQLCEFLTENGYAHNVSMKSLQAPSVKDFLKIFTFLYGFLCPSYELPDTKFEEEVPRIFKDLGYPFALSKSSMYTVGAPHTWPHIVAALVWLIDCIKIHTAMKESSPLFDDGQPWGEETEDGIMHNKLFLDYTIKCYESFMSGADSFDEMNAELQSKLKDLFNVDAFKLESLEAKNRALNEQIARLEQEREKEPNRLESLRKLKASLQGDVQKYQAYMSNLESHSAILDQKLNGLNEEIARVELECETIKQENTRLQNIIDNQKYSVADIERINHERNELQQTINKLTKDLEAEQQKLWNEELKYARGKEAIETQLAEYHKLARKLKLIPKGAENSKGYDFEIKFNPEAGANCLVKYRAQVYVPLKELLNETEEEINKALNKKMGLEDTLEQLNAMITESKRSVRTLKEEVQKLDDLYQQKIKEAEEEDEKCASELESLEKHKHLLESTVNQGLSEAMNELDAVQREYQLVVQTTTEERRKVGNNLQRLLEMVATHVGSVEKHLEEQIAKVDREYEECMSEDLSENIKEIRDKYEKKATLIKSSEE
UniProt P51956: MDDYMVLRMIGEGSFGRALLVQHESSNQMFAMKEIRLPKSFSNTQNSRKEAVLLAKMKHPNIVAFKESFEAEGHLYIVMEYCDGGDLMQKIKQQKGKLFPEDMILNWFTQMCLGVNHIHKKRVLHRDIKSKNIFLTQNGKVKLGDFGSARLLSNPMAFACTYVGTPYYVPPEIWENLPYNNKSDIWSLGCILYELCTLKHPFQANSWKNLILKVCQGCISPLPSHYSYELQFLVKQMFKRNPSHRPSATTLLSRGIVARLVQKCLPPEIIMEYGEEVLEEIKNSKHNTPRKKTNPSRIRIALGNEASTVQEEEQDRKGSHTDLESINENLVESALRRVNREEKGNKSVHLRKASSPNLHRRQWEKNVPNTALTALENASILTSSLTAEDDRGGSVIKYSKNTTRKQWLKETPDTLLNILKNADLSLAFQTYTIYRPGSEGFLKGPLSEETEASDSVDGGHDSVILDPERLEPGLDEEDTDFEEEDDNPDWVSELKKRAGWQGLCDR
UniProt O43676, whole entry, looked up: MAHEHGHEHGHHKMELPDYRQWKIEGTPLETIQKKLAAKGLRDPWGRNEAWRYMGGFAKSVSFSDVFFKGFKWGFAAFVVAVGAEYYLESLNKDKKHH
UniProt O95168, whole entry, looked up: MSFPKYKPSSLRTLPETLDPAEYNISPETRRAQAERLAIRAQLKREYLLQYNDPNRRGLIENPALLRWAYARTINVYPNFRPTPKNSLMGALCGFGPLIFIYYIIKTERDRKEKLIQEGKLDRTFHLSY
UniProt Q16795, whole entry, looked up: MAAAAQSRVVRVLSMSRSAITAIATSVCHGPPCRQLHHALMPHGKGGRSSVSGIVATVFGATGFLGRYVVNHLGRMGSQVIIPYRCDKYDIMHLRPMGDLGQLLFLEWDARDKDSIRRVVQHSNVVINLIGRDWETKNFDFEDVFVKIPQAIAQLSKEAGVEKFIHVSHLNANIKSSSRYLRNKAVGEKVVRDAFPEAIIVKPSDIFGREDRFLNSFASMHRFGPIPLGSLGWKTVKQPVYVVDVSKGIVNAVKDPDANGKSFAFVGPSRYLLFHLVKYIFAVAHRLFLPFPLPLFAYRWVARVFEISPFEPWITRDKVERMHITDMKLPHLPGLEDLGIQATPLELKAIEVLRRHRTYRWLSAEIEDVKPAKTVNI
UniProt Q7RTR2: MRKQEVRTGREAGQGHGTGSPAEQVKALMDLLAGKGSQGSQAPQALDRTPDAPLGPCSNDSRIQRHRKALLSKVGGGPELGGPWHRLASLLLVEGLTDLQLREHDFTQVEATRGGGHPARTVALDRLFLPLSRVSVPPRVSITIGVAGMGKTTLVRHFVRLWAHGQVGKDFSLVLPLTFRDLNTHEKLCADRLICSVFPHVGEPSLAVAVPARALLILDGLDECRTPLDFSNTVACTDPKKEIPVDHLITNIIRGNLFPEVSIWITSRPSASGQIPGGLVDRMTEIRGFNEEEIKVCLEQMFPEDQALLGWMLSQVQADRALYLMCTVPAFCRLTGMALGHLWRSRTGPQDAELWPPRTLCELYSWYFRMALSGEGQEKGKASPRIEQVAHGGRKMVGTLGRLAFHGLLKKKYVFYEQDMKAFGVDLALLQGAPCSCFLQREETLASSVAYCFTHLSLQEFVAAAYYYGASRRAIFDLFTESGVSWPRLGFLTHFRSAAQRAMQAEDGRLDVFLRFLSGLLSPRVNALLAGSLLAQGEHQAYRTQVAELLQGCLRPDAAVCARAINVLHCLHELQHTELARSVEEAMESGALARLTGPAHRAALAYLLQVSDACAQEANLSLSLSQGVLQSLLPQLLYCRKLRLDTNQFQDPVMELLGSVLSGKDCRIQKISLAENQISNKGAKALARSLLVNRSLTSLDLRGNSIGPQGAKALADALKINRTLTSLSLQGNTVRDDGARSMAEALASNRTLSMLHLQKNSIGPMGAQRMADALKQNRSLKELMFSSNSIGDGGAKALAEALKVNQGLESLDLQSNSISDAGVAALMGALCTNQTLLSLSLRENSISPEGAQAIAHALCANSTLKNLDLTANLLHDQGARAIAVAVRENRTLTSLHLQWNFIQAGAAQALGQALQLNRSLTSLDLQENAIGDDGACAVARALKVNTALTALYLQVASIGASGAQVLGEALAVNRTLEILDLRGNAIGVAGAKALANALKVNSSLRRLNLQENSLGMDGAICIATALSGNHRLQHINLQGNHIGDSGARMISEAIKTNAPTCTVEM
UniProt Q9P0J0, whole entry, looked up: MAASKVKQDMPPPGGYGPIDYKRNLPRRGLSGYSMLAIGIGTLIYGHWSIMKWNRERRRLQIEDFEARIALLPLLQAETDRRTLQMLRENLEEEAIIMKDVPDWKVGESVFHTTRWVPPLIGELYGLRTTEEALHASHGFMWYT
UniProt O43920, whole entry, looked up: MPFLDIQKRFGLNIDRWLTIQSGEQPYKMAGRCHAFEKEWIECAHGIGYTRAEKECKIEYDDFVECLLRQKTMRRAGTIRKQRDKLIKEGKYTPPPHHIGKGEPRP
UniProt Q9NXR1: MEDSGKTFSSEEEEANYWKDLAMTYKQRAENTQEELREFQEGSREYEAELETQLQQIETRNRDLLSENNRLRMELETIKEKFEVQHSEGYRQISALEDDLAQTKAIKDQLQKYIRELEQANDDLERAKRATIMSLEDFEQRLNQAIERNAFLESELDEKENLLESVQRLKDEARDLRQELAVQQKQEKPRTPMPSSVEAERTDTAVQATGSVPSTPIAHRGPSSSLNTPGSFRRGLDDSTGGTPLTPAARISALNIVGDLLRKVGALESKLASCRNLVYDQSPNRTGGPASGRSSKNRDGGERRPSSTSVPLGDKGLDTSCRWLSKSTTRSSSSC
UniProt P12036: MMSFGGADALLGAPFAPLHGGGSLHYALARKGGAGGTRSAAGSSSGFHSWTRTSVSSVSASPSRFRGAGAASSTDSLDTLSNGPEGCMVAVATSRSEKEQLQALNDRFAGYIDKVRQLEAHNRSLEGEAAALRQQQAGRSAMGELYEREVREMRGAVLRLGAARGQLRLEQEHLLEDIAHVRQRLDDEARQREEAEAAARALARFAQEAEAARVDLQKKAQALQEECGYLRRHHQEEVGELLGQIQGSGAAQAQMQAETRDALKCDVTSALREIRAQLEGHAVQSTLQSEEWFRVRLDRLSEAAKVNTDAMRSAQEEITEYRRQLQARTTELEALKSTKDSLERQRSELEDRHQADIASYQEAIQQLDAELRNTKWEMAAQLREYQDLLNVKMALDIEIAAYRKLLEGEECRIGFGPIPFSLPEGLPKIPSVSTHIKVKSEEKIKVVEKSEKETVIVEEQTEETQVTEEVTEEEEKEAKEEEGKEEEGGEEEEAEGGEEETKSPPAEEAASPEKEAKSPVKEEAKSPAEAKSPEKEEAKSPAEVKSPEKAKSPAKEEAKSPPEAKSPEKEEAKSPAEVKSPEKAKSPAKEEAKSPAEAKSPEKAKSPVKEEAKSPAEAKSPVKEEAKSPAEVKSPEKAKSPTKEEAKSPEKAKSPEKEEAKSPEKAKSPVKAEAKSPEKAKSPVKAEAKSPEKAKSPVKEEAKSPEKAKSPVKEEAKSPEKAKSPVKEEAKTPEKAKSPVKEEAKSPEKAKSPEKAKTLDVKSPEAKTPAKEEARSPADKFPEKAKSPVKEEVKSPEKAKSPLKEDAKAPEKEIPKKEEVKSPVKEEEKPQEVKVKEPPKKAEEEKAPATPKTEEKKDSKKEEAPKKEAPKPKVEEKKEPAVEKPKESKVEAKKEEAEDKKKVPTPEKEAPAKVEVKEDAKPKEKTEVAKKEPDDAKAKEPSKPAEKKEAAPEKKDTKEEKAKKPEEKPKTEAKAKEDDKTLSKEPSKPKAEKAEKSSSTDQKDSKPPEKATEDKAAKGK
UniProt O43678, whole entry, looked up: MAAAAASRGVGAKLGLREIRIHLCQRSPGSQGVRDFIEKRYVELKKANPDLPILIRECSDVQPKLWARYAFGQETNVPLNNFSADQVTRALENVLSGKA

[1] = compound: C/C(=N\NC(=O)C1=CC(=CC=C1)S(=O)(=O)N2CCOCC2)/C3=C(C=CC(=C3)Cl)O
Summary of the method: as §1

[2] = compound: C1=CC(=CC=C1C2=NC3=C(N2)C=C(C=C3)C(=O)N)OC4=CC=C(C=C4)Cl
Summary of the method: as §1

[3] = compound: C1=CC2=C(C=CC(=C2)/C=C\3/C(=O)NC(=NCC4=CC=CS4)S3)N=C1
Summary of the method: as §1

[4] = compound: C1=CC2=NC=CN=C2C=C1/C=C/3\C(=O)NC(=O)S3
Summary of the method: as §1

[5] = compound: C1=CC=C(C=C1)C2=NC(=C(N2)C3=CC=NC=C3)C4=CC(=C(C=C4)Cl)O
Summary of the method: as §1

[6] = compound: C1=CC=C2C(=C1)C3=NNC4=CC=CC(=C43)C2=O
Summary of the method: as §1

[7] = compound: C1CCN(C1)C(=O)NC2=CC=CC(=C2)NC3=NC=C(C(=N3)NCCC4=CN=CN4)Br
Summary of the method: as §1

[8] = compound: C1CN(CCC1(CC2=CC=C(C=C2)Cl)N)C3=NC=NC4=C3C=CN4
Summary of the method: as §1

IRAK-1-4 Inhibitor I = compound: C1COCCN1CCN2C3=CC=CC=C3N=C2NC(=O)C4=CC(=CC=C4)[N+](=O)[O-] [IRAK-1-4 Inhibitor I]
Summary of the method: as §1

ibrutinib = compound: C=CC(=O)N1CCC[C@@H](n2nc(-c3ccc(Oc4ccccc4)cc3)c3c(N)ncnc32)C1 [ibrutinib]
Summary of the method: as §1

[9] = compound: CC(=O)c1cnc2ccc(-c3cc(Cl)c(O)c(Cl)c3)nc2c1N[C@H]1CC[C@H](CN(C)C)CC1
Summary of the method: as §1

ralimetinib = compound: CC(C)(C)Cn1c(N)nc2ccc(-c3[nH]c(C(C)(C)C)nc3-c3ccc(F)cc3)nc21 [ralimetinib]
Summary of the method: as §1

[10] = compound: CC(C)(O)CC(=O)NCCn1ccc2ncnc(Nc3ccc(Oc4cccc(C(F)(F)F)c4)c(Cl)c3)c21
Summary of the method: as §1

[11] = compound: CC(C)C1=C2N=C(C=C(N2N=C1)NCC3=CC=CC=C3)NCCCCCCN
Summary of the method: as §1

[12] = compound: CC1=C(C(CC(=O)N1)C2=CC=C(C=C2)C(F)(F)F)C(=O)NC3=C(C=C4C(=C3)C=NN4)F
Summary of the method: as §1

[13] = compound: CC1=C(C2=C(C=C1)C(=O)C3=CC=CC=C3N2CCCN)C
Summary of the method: as §1

[14] = compound: CC1=C(C=C(C=C1)NC(=O)C2=CC(=CC=C2)C(C)(C)C#N)NC3=CC4=C(C=C3)N=CN(C4=O)C
Summary of the method: as §1

[15] = compound: CC1=C(C=C(C=C1)NC(=O)C2=CC(=CC=C2)N(C)C)NC(=O)C3=CC=C(C=C3)O
Summary of the method: as §1

[16] = compound: CC1=CC=C(C=C1)SC2=C3C=C(SC3=CN=C2)C(=O)N
Summary of the method: as §1

Measured: log2 fold change

NLRP2 (UniProt Q9NX02)
inactive: erlotinib 0.004 | [1] -0.015 | [2] -0.002 | [3] -0.005 | [4] -0.013 | [5] -0.002 | [6] -0.021 | [7] 0.01 | [8] -0.031 | IRAK-1-4 Inhibitor I -0.043 | ibrutinib -0.007 | [9] -0.007 | ralimetinib 0.036 | [10] 0.021 | [11] -0.008 | [12] 0.007 | [13] 0.009 | [14] 0.003 | [15] 0.021 | [16] 0.021

NEU3 isoform 2 (UniProt Q9UQ49)
inactive: erlotinib 0.046 | [1] -0.056 | [2] -0.087 | [3] -0.035 | [4] 0.113 | [5] 0.048 | [6] 0.135 | [7] -0.028 | [8] -0.117 | IRAK-1-4 Inhibitor I 0.067 | ibrutinib -0.052 | [9] 0.124 | ralimetinib 0.034 | [10] -0.025 | [11] 0.041 | [12] 0.002 | [13] -0.009 | [14] 0.034 | [15] 0.023 | [16] 0.036

NDUFB8 (UniProt O95169)
inactive: erlotinib 0.047 | [1] 0.02 | [2] -0.072 | [3] -0.001 | [4] 0.132 | [5] -0.022 | [6] 0.076 | [7] 0.009 | [8] 0.217 | IRAK-1-4 Inhibitor I -0.033 | ibrutinib -0.008 | [9] -0.056 | ralimetinib 0.027 | [10] -0.021 | [11] -0.008 | [12] -0.058 | [13] -0.002 | [14] 0.084 | [15] 0 | [16] 0.022

NDUFS1 isoform 2 (UniProt P28331)
inactive: erlotinib -0.006 | [1] 0.033 | [2] -0.045 | [3] 0.025 | [4] 0.027 | [5] -0.033 | [6] -0.027 | [7] -0.052 | [8] 0.006 | IRAK-1-4 Inhibitor I 0.006 | ibrutinib -0.022 | [9] -0.009 | ralimetinib 0.014 | [10] -0.049 | [11] -0.041 | [12] 0.01 | [13] 0.007 | [14] -0.045 | [15] 0.005 | [16] 0.005

NDC80 (UniProt O14777)
inactive: erlotinib 0.016 | [1] 0.007 | [2] -0.031 | [3] 0.016 | [4] 0.003 | [5] 0.001 | [6] -0.004 | [7] 0 | [8] -0.011 | IRAK-1-4 Inhibitor I -0.035 | ibrutinib -0.002 | [9] -0.008 | ralimetinib 0.002 | [10] 0.009 | [11] -0.021 | [12] 0.025 | [13] 0.023 | [14] -0.01 | [15] 0.012 | [16] -0.015

NEK3 (UniProt P51956)
inactive: erlotinib 0.009 | [1] 0.195 | [2] 0.068 | [3] 0.077 | [4] -0.112 | [5] -0.067 | [6] -0.074 | [7] 0.063 | [8] -0.033 | IRAK-1-4 Inhibitor I 0.049 | ibrutinib 0.025 | [9] -0.057 | ralimetinib -0.059 | [10] -0.045 | [11] -0.045 | [12] 0.079 | [13] 0.08 | [14] 0.001 | [15] -0.006 | [16] 0.005

NDUFB3 (UniProt O43676)
inactive: erlotinib -0.049 | [1] -0.066 | [2] -0.08 | [3] 0.027 | [4] 0.005 | [5] -0.021 | [6] -0.009 | [7] 0.035 | [8] 0.012 | IRAK-1-4 Inhibitor I -0.039 | ibrutinib 0.029 | [9] 0.028 | ralimetinib 0.033 | [10] 0.001 | [11] -0.026 | [12] 0.001 | [13] 0.018 | [14] -0.013 | [15] -0.02 | [16] 0.012

NDUFB4 (UniProt O95168)
inactive: erlotinib 0.023 | [1] 0.056 | [2] -0.098 | [3] 0.003 | [4] -0.111 | [5] 0.011 | [6] 0 | [7] -0.009 | [8] 0.007 | IRAK-1-4 Inhibitor I -0.005 | ibrutinib 0.154 | [9] -0.005 | ralimetinib -0.035 | [10] -0.032 | [11] 0.007 | [12] 0.028 | [13] 0.015 | [14] 0 | [15] 0.023 | [16] 0.036

Three consecutive records out of the list so far, quoted:
NEU3 isoform 2 (UniProt Q9UQ49)
inactive: erlotinib 0.046 | [1] -0.056 | [2] -0.087 | [3] -0.035 | [4] 0.113 | [5] 0.048 | [6] 0.135 | [7] -0.028 | [8] -0.117 | IRAK-1-4 Inhibitor I 0.067 | ibrutinib -0.052 | [9] 0.124 | ralimetinib 0.034 | [10] -0.025 | [11] 0.041 | [12] 0.002 | [13] -0.009 | [14] 0.034 | [15] 0.023 | [16] 0.036

NDUFB8 (UniProt O95169)
inactive: erlotinib 0.047 | [1] 0.02 | [2] -0.072 | [3] -0.001 | [4] 0.132 | [5] -0.022 | [6] 0.076 | [7] 0.009 | [8] 0.217 | IRAK-1-4 Inhibitor I -0.033 | ibrutinib -0.008 | [9] -0.056 | ralimetinib 0.027 | [10] -0.021 | [11] -0.008 | [12] -0.058 | [13] -0.002 | [14] 0.084 | [15] 0 | [16] 0.022

NDUFS1 isoform 2 (UniProt P28331)
inactive: erlotinib -0.006 | [1] 0.033 | [2] -0.045 | [3] 0.025 | [4] 0.027 | [5] -0.033 | [6] -0.027 | [7] -0.052 | [8] 0.006 | IRAK-1-4 Inhibitor I 0.006 | ibrutinib -0.022 | [9] -0.009 | ralimetinib 0.014 | [10] -0.049 | [11] -0.041 | [12] 0.01 | [13] 0.007 | [14] -0.045 | [15] 0.005 | [16] 0.005

(list continues)

NDUFA9 (UniProt Q16795)
inactive: erlotinib 0.026 | [1] 0.097 | [2] 0.011 | [3] 0.061 | [4] 0.004 | [5] -0.01 | [6] -0.031 | [7] -0.037 | [8] 0.031 | IRAK-1-4 Inhibitor I 0.041 | ibrutinib -0.007 | [9] 0.043 | ralimetinib 0.027 | [10] -0.123 | [11] -0.05 | [12] 0.061 | [13] 0.016 | [14] -0.058 | [15] 0.077 | [16] 0.047

NLRC3 isoform 2 (UniProt Q7RTR2)
inactive: erlotinib -0.017 | [1] -0.062 | [2] 0.018 | [3] -0.109 | [4] -0.075 | [5] 0.043 | [6] 0.027 | [7] 0.026 | [8] -0.108 | IRAK-1-4 Inhibitor I 0.014 | ibrutinib -0.066 | [9] 0.024 | ralimetinib -0.015 | [10] -0.234 | [11] -0.029 | [12] -0.108 | [13] 0.014 | [14] 0.247 | [15] 0.32 | [16] 0.024

NDUFA13 (UniProt Q9P0J0)
inactive: erlotinib 0.064 | [1] 0.029 | [2] -0.053 | [3] 0.019 | [4] -0.008 | [5] 0.025 | [6] -0.049 | [7] 0.012 | [8] -0.011 | IRAK-1-4 Inhibitor I 0.011 | ibrutinib -0.033 | [9] 0.004 | ralimetinib 0.009 | [10] -0.081 | [11] -0.034 | [12] 0.005 | [13] 0.006 | [14] 0.007 | [15] -0.006 | [16] 0.029

NDUFS5 (UniProt O43920)
inactive: erlotinib -0.023 | [1] -0.029 | [2] 0.028 | [3] -0.008 | [4] -0.029 | [5] 0.002 | [6] -0.047 | [7] 0 | [8] -0.002 | IRAK-1-4 Inhibitor I 0.03 | ibrutinib 0.029 | [9] 0.013 | ralimetinib -0.011 | [10] -0.025 | [11] -0.017 | [12] 0.001 | [13] 0.006 | [14] -0.008 | [15] -0.021 | [16] -0.009

NIT1 (UniProt Q86X76)
inactive: erlotinib -0.001 | [1] 0.045 | [2] -0.004 | [3] -0.011 | [4] -0.002 | [5] -0.015 | [6] -0.012 | [7] -0.008 | [8] 0.023 | IRAK-1-4 Inhibitor I 0.024 | ibrutinib -0.004 | [9] -0.007 | ralimetinib 0.038 | [10] -0.027 | [11] 0.025 | [12] -0.022 | [13] -0.002 | [14] 0.068 | [15] 0.007 | [16] -0.023

NDE1 isoform 1 (UniProt Q9NXR1)
inactive: erlotinib -0.025 | [1] -0.044 | [2] 0.04 | [3] 0.008 | [4] -0.017 | [5] 0.117 | [6] 0.046 | [7] 0.017 | [8] -0.031 | IRAK-1-4 Inhibitor I 0.049 | ibrutinib 0.023 | [9] -0.034 | ralimetinib 0.015 | [10] -0.035 | [11] -0.025 | [12] 0.01 | [13] -0.037 | [14] 0 | [15] -0.051 | [16] -0.037

NEFH (UniProt P12036)
inactive: erlotinib -0.013 | [1] -0.03 | [2] 0.014 | [3] 0.048 | [4] -0.061 | [5] -0.017 | [6] -0.031 | [7] 0.016 | [8] 0.036 | IRAK-1-4 Inhibitor I -0.028 | ibrutinib 0.019 | [9] -0.021 | ralimetinib 0.016 | [10] -0.09 | [11] -0.012 | [12] 0.007 | [13] 0.066 | [14] 0.014 | [15] 0.043 | [16] -0.007

NDUFA2 (UniProt O43678)
inactive: erlotinib -0.039 | [1] 0.091 | [2] -0.02 | [3] -0.047 | [4] -0.031 | [5] -0.031 | [6] 0.038 | [7] -0.016 | [8] 0.089 | IRAK-1-4 Inhibitor I -0.013 | ibrutinib 0.06 | [9] 0.019 | ralimetinib 0.024 | [10] -0.011 | [11] -0.04 | [12] -0.016 | [13] 0.035 | [14] 0.002 | [15] 0.005 | [16] -0.003

Source: the supplement of paper PMC10849652
